# Assay results: the supplement of paper PMC12067093, “Discovery and optimisation of a covalent ligand for TRIM25 and its application to targeted protein ubiquitination” (Chemical Science, 2025)
# Amino acid sequences for entries named in this document (tags omitted). A change or cut given only in a name is not applied to a line headed by its entry.
# UniProt Q3SY69: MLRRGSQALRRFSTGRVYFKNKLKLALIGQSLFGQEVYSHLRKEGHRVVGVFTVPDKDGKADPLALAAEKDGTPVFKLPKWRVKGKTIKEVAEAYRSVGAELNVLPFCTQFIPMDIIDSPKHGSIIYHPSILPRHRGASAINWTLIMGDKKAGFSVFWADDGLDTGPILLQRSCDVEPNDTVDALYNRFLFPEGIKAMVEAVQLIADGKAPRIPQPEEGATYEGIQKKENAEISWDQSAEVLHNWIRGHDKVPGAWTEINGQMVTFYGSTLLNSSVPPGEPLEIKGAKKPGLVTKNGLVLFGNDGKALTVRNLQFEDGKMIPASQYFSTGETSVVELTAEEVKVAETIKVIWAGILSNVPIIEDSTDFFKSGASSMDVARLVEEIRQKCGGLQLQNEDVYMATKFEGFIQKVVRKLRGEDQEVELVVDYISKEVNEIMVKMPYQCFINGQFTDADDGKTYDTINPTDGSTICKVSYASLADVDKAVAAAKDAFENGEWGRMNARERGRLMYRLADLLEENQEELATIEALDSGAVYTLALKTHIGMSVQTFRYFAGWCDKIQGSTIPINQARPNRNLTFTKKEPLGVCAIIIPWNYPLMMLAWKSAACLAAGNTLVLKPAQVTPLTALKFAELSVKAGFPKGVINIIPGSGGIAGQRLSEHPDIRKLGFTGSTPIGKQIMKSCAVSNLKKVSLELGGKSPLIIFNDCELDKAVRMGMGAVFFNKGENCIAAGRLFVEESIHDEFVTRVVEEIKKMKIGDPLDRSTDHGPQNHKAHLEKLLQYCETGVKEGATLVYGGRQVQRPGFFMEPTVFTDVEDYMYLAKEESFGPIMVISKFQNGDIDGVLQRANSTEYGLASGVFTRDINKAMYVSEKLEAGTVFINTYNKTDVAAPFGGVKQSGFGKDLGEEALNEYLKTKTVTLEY
# UniProt P30837: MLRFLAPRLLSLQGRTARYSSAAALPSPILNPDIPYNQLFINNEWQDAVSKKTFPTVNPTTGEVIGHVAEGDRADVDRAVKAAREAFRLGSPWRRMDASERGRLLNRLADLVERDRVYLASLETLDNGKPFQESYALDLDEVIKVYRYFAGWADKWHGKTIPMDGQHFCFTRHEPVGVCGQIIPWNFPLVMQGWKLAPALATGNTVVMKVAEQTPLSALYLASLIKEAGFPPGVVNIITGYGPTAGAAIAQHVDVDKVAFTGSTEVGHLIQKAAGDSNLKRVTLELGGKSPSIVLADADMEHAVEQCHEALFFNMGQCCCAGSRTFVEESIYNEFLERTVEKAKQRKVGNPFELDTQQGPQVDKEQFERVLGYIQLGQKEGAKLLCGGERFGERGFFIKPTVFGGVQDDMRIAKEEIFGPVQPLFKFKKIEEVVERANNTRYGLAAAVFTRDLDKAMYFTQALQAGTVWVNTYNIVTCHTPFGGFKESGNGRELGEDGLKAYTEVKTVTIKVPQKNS
# UniProt O43865, whole entry, looked up: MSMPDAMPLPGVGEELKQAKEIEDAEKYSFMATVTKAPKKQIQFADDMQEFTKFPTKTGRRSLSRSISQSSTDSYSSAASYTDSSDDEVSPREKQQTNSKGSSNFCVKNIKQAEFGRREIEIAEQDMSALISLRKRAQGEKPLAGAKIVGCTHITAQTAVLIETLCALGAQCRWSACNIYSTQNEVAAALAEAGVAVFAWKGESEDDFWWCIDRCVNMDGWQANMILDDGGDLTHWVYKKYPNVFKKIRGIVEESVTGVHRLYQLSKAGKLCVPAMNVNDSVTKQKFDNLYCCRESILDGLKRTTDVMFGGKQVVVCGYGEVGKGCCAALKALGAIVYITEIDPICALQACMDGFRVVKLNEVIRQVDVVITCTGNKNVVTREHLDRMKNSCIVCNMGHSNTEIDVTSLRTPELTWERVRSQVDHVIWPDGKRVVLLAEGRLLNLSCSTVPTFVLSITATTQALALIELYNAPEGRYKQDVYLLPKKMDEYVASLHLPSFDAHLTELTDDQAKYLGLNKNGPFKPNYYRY
# Some of the results follow.
# Compound: Cc1cc(ccc1-c1ccccc1)C(=O)N1CCCN(CC1)C(=O)CCl [compound 10]
# Assay: probe-labelled cysteine peptide fold change vs DMSO (competition) (log2 fold change); higher = less target engagement (more negative = stronger competition)
# Settings: THP-1, incubation time: 4 h
# 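Also: competitive profiling in live THP-1 cells: cysteine peptides tagged with an iodoacetamide desthiobiotin (IA-DTB) probe, intensity after compound treatment relative to DMSO-treated cells.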
Target,probe-labelled cysteine peptide fold change (10 µM),probe-labelled cysteine peptide fold change (50 µM)
ALDH1L2_Q3SY69_472_TYDTINPTDGSTICK (UniProt Q3SY69),0.23,0.263
AMPD2_Q01433_310_TYEQGPDTPVSADAPVHPPALEQHPYEHCEPSTMPGDLGLGLR (UniProt Q01433),-0.312,-0.408
ALAD_P13716_132_TFPNLLVACDVCLCPYTSHGHCGLLSENGAFR (UniProt P13716),0.0644,-0.235
ALDH1B1_P30837_169_TIPMDGQHFCFTR (UniProt P30837),0.00215,-0.131
AHCYL1_O43865_172_IVGCTHITAQTAVLIETLCALGAQCR (UniProt O43865),-0.284,0.552
